Data as given in PubChem BioAssay AID743454 (Peter MacCallum Cancer Centre, 2014).

Purpose: 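Knock-downs lowering viability or raising caspase 3/7 activity in vorinostat-treated resistant cells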 (primary screen)
Cell system: human HCT116-VR colon cancer cells, selected for vorinostat resistance
Reagents: siRNA pool against human genes, 40 nM siRNA pool
Duration: vorinostat for 24 h, read-out about 72 h after transfection
Treatment: vorinostat at 2.5 µM final
Read-out: 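Cell viability by CellTiter-Fluor and caspase 3/7 activity by luminescence, each scaled to mock wells per plate, duplicates averaged, then robust z-scored over all plates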
Reading the numbers: viability robust z-score: higher = more viable cells than screen typical; caspase robust z-score: higher = more caspase 3/7 activity than screen typical
Call rule: 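Hits are knock-downs in viability class RV1/RV2 or caspase class CA1/CA2, excluding ones that killed cells in the no-drug cell-count arm; hits then retested with single siRNAs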
Shown is an unselected part of about 18,000 reagents. 450 of them (2.5%) count as active. 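Single biological run; no consistent viability z cut-off exists, so the class columns, not z-scores, define the calls.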

Which result is listed for KIF23 (kinesin family member 23)?
viability hit class: no change; caspase hit class: no change; viability robust z-score: -2.21; caspase robust z-score: 3.08; activity call: inactive

With HECTD3 (HECT domain E3 ubiquitin protein ligase 3), how do the results read?
viability hit class: no change; caspase hit class: no change; viability robust z-score: -0.06; caspase robust z-score: 0.1; activity call: inactive

What did the screen give for RMDN3 (regulator of microtubule dynamics 3)?
viability hit class: no change; caspase hit class: no change; viability robust z-score: 1.5; caspase robust z-score: 1.81; activity call: inactive

What did the screen give for STK26 (serine/threonine kinase 26)?
viability hit class: no change; caspase hit class: no change; viability robust z-score: 1.7; caspase robust z-score: -0.8; activity call: inactive

With DNAI2 (dynein axonemal intermediate chain 2), what was measured?
viability hit class: no change; caspase hit class: CA2 (caspase activation); viability robust z-score: -2.23; caspase robust z-score: 5.13; activity call: active

With OR6C70 (olfactory receptor family 6 subfamily C member 70), what was measured?
viability hit class: no change; caspase hit class: no change; viability robust z-score: -0.11; caspase robust z-score: -0.53; activity call: inactive

With CYLC1 (cylicin 1), how do the results read?
viability hit class: no change; caspase hit class: no change; viability robust z-score: -1.08; caspase robust z-score: -1.11; activity call: inactive

What is on record for PRB1 (proline rich protein BstNI subfamily 1)?
viability hit class: no change; caspase hit class: no change; viability robust z-score: 0.5; caspase robust z-score: 0.22; activity call: inactive

What is on record for AREG (amphiregulin)?
viability hit class: no change; caspase hit class: no change; viability robust z-score: -2.53; caspase robust z-score: 3.09; activity call: inactive

For RPA2 (replication protein A2), what was measured?
viability hit class: no change; caspase hit class: CA2 (caspase activation); viability robust z-score: 0.12; caspase robust z-score: 5.3; activity call: active

With MYL9 (myosin light chain 9), how do the results read?
viability hit class: no change; caspase hit class: no change; viability robust z-score: 0.96; caspase robust z-score: -0.6; activity call: inactive

For ZNF221 (zinc finger protein 221), what does the deposit list?
viability hit class: no change; caspase hit class: no change; viability robust z-score: 0.12; caspase robust z-score: -0.53; activity call: inactive

For MS4A10 (membrane spanning 4-domains A10), what was measured?
viability hit class: no change; caspase hit class: no change; viability robust z-score: 0.35; caspase robust z-score: 2.91; activity call: inactive

Which result is listed for MFAP3L (microfibril associated protein 3 like)?
viability hit class: no change; caspase hit class: no change; viability robust z-score: -1.29; caspase robust z-score: -0.94; activity call: inactive

Which result is listed for CNOT4 (CCR4-NOT transcription complex subunit 4)?
viability hit class: no change; caspase hit class: no change; viability robust z-score: -1.37; caspase robust z-score: -0.75; activity call: inactive

Which result is listed for RNF133 (ring finger protein 133)?
viability hit class: no change; caspase hit class: no change; viability robust z-score: -0.05; caspase robust z-score: -0.12; activity call: inactive

What is on record for ZDHHC14 (zDHHC palmitoyltransferase 14)?
viability hit class: no change; caspase hit class: no change; viability robust z-score: -0.94; caspase robust z-score: -0.19; activity call: inactive

For RAB36 (RAB36, member RAS oncogene family), what does the deposit list?
viability hit class: no change; caspase hit class: no change; viability robust z-score: -0.92; caspase robust z-score: -0.14; activity call: inactive

With FRMD6 (FERM domain containing 6), what does the deposit list?
viability hit class: no change; caspase hit class: no change; viability robust z-score: -0.08; caspase robust z-score: -0.96; activity call: inactive

What did the screen give for DPP9 (dipeptidyl peptidase 9)?
viability hit class: no change; caspase hit class: no change; viability robust z-score: 0.3; caspase robust z-score: 3.17; activity call: inactive

How did the screen score C8orf33 (chromosome 8 open reading frame 33)?
viability hit class: no change; caspase hit class: no change; viability robust z-score: -1.64; caspase robust z-score: 3.58; activity call: inactive
